Test system: human iPSC-derived cardiomyocytes
Assay: Calcium oscillation assay in iPSC-derived cardiomyocytes (FLIPR Penta, EarlyTox Cardiotoxicity Kit, Peak Pro 2 analysis)
Assay type: cell-based
Conditions: 1 μM
Experimental: Development of biologically relevant and predictive cell-based assays for compound screening and toxicity assessment is a major challenge in drug discovery. The focus of this study was to establish high-throughput-compatible cardiotoxicity assays using human-induced pluripotent stem cell (iPSC)-derived cardiomyocytes. To assess the utility of human iPSC-derived cardiomyocytes as an in vitro pro-arrhythmia model, the concentration dependence and responses were evaluated for 28 drugs linked to low, intermediate, and high torsades de pointes (TdP) risk categories. […] This assay allows for the characterization of parameters such as beating frequency, amplitude, peak width, and rise and decay times. […] The iPSC-derived cardiomyocytes generate spontaneous synchronized calcium oscillations. High speed fluorescence imaging with the FLIPR® Penta® System was used to measure the patterns and frequencies of the Ca^2+ oscillations in cardiomyocytes as monitored by changes in intracellular Ca^2+ levels with the EarlyToxTM Cardiotoxicity Kit. […] In addition, assay-ready 384-Well plates with cardiomyocytes1 were obtained from […], Inc. Plates were shipped pre-plated and allowed to recover after arrival for 2 days. […]

## COC(=O)C1=C(C)NC(C)=C(C(=O)OC)C1c1ccccc1[N+](=O)[O-] [nifedipine]
After thirty minutes treatment, control DMSO
  frequency of primary peaks relative to control: significantly higher frequency than control
Recorded two minutes after thirty minutes treatment
  peaks detected in calcium oscillation trace (primary / secondary peaks): Only primary peaks 118 are detected

Reference: patent publication US20220364990A1, “ANALYSIS OF OSCILLATORY FLUORESCENCE FROM BIOLOGICAL CELLS” (MOLECULAR DEVICES, LLC, priority 2019, published 2022)
